Here are results for seven molecules from PMC6985365.

By UniProt entry, the sequences of proteins in these tests, tags left out.
UniProt Q8N884: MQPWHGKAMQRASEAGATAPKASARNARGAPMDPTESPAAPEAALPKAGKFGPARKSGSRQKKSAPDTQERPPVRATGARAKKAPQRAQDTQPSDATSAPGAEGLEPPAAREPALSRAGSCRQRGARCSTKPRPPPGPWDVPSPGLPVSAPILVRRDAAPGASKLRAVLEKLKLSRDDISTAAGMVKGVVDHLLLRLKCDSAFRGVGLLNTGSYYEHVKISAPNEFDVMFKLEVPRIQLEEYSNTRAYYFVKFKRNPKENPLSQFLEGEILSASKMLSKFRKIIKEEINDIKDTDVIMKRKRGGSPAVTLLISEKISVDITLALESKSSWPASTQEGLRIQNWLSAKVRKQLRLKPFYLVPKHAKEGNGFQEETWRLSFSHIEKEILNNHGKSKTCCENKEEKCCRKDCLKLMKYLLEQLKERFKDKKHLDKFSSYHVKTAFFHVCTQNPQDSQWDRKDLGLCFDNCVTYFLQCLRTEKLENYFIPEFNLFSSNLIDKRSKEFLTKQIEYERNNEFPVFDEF
UniProt Q04206: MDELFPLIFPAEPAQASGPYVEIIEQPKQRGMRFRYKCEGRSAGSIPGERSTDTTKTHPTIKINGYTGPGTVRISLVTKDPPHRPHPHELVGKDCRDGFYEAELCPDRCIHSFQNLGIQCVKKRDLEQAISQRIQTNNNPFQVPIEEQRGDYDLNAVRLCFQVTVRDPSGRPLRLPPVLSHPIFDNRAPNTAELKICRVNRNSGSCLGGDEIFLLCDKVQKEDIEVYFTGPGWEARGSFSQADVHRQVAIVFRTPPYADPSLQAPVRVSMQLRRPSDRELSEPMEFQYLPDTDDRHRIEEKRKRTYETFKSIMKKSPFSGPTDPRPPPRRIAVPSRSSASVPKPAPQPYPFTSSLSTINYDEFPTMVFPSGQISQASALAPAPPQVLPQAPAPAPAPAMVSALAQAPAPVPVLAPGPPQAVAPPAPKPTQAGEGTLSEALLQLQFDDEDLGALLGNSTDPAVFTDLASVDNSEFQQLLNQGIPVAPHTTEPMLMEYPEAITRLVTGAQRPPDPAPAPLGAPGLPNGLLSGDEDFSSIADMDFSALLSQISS
UniProt Q9Y6K9: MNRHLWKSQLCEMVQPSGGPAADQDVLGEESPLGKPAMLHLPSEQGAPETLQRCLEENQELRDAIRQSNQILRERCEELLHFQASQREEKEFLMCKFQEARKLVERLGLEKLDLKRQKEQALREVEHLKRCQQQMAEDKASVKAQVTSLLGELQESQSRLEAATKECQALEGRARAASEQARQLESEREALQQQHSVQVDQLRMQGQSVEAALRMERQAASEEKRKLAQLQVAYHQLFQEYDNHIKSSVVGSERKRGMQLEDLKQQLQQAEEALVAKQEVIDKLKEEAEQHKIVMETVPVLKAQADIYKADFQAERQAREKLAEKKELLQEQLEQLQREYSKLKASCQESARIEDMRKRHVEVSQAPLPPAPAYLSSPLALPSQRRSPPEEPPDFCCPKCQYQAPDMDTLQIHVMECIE
UniProt Q9UKB1: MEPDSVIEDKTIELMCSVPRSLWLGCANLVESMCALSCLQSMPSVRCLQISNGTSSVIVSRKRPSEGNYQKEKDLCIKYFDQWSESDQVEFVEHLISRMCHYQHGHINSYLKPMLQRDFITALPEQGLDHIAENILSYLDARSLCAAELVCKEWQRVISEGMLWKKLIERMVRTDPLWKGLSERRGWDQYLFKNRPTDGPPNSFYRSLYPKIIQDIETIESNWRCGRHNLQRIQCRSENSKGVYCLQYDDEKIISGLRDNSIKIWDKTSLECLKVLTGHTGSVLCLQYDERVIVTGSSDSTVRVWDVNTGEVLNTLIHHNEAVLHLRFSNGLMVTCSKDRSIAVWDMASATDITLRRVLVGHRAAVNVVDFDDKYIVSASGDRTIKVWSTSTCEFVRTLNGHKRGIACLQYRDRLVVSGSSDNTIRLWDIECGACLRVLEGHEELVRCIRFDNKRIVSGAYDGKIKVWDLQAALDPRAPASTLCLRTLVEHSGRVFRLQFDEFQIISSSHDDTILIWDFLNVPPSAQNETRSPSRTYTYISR

No constants are given. Whether binding was seen depends on the method and setting. For part of these data: Binding seen in cells or lysates may run through a third protein. Some results given as binding are weak or reduced against the parent protein; the word gives no strength. For part of these data: Tags and fused reporters may be left off the sequences shown.

The target of experiment [1] is T1, TAP-tagged SPSB1-ΔSOCS (human) (UniProt Q96BD6).
T1 sequence: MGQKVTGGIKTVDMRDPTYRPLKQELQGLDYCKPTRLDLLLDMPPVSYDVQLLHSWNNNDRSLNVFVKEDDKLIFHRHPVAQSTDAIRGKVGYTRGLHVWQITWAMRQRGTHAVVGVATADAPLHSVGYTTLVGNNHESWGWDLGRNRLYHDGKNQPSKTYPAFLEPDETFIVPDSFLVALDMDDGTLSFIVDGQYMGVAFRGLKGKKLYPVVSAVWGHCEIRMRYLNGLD
The experiment in a line: pull-down; HEK293T transfected with HA-p65 and TAP-tagged bait; lysis in IP buffer; Streptavidin beads 16 h at 4°C, 3 washes, elution in Laemmli buffer; immunoblot against tags.

Experiment [2] addresses T2, TAP-tagged full-length SPSB1 (human) (UniProt Q96BD6).
T2 sequence: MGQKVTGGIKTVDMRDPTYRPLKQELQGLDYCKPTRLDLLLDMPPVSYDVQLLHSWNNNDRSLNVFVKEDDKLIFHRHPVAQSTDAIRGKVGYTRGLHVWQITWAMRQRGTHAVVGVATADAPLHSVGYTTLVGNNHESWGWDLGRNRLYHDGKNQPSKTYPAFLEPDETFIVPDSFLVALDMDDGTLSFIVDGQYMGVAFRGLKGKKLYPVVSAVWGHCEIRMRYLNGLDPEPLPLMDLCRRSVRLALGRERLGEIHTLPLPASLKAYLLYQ
The description is as above.

The target in another experiment is TAP-tagged cGAS (UniProt Q8N884). The description is as above.
The target in experiment [3] is T3, FLAG-SPSB1 (SPRY and SOCS-box containing protein 1) (human) (UniProt Q96BD6).
T3 sequence: T2 sequence
Kind of experiment: LUMIER (luminescence-based mammalian interactome mapping); HEK293T co-transfected with FLAG-SPSB1 and Rluc fusions for 24 h; lysis in IP buffer (20 mM Tris-HCl pH7.4, 150 mM NaCl, 10 mM CaCl2, 0.1% Triton-X, 10% glycerol); affinity purification with streptavidin beads 6 h at 4°C, elution with biotin; Rluc activity as binding fold over Rluc-only control.

Take “HA-tagged p65 (from UniProt Q04206 1-551)”: the results for the binding entry (in experiment [1]; in experiment [2]; in the experiment with TAP-tagged cGAS) were “binds”, “binds” and “no binding”, respectively. As to “Rluc fusion of IKK-γ (from UniProt Q9Y6K9 1-419)”, in experiment [3], the binding result was “no binding”.

As for “Rluc fusion of β-TrCP (β-transducin repeat containing protein) (from UniProt Q9UKB1 1-542)”, the binding result in experiment [3] is on record as “no binding”.

B1: Rluc fusion of IKK-β (protein, UniProt O14920 1-756)
chain: MSWSPSLTTQTCGAWEMKERLGTGGFGNVIRWHNQETGEQIAIKQCRQELSPRNRERWCLEIQIMRRLTHPNVVAARDVPEGMQNLAPNDLPLLAMEYCQGGDLRKYLNQFENCCGLREGAILTLLSDIASALRYLHENRIIHRDLKPENIVLQQGEQRLIHKIIDLGYAKELDQGSLCTSFVGTLQYLAPELLEQQKYTVTVDYWSFGTLAFECITGFRPFLPNWQPVQWHSKVRQKSEVDIVVSEDLNGTVKFSSSLPYPNNLNSVLAERLEKWLQLMLMWHPRQRGTDPTYGPNGCFKALDDILNLKLVHILNMVTGTIHTYPVTEDESLQSLKARIQQDTGIPEEDQELLQEAGLALIPDKPATQCISDGKLNEGHTLDMDLVFLFDNSKITYETQISPRPQPESVSCILQEPKRNLAFFQLRKVWGQVWHSIQTLKEDCNRLQQGQRAAMMNLLRNNSCLSKMKNSMASMSQQLKAKLDFFKTSIQIDLEKYSEQTEFGITSDKLLLAWREMEQAVELCGRENEVKLLVERMMALQTDIVDLQRSPMGRKQGGTLDDLEEQARELYRRLREKPRDQRTEGDSQEMVRLLLQAIQSFEKKVRVIYTQLSKTVVCKQKALELLPKVEEVVSLMNEDEKTVVRLQEKRQKELWNLLKIACSKVRGPVSGSPDSMNASRLSQPGQLMSQPSTASNSLPEPAKKSEELVAEAHNLCTLLENAIQDTVREQDQSFTALDWSWLQTEEEEHSCLEQAS
B1: in experiment [3], the binding result is reported as “no binding”.

B2: Rluc fusion of TAK-1 (protein, UniProt O43318 1-606)
chain: MSTASAASSSSSSSAGEMIEAPSQVLNFEEIDYKEIEVEEVVGRGAFGVVCKAKWRAKDVAIKQIESESERKAFIVELRQLSRVNHPNIVKLYGACLNPVCLVMEYAEGGSLYNVLHGAEPLPYYTAAHAMSWCLQCSQGVAYLHSMQPKALIHRDLKPPNLLLVAGGTVLKICDFGTACDIQTHMTNNKGSAAWMAPEVFEGSNYSEKCDVFSWGIILWEVITRRKPFDEIGGPAFRIMWAVHNGTRPPLIKNLPKPIESLMTRCWSKDPSQRPSMEEIVKIMTHLMRYFPGADEPLQYPCQYSDEGQSNSATSTGSFMDIASTNTSNKSDTNMEQVPATNDTIKRLESKLLKNQAKQQSESGRLSLGASRGSSVESLPPTSEGKRMSADMSEIEARIAATTAYSKPKRGHRKTASFGNILDVPEIVISGNGQPRRRSIQDLTVTGTEPGQVSSRSSSPSVRMITTSGPTSEKPTRSHPWTPDDSTDTNGSDNSIPMAYLTLDHQLQPLAPCPNSKESMAVFEQHCKMAQEYMKVQTEIALLLQRKQELVAELDQDEKDQQNTSRLVQEHKKLLDENKSLSTYYQQCKKQLEVIRSQQQKRQGTS
B2: in experiment [3], the binding result is recorded as “no binding”.

B3: Rluc fusion of TAB-3 (protein, UniProt Q8N5C8 1-712)
chain: MAQSSPQLDIQVLHDLRQRFPEIPEGVVSQCMLQNNNNLEACCRALSQESSKYLYMEYHSPDDNRMNRNRLLHINLGIHSPSSYHPGDGAQLNGGRTLVHSSSDGHIDPQHAAGKQLICLVQEPHSAPAVVAATPNYNPFFMNEQNRSAATPPSQPPQQPSSMQTGMNPSAMQGPSPPPPPPSYMHIPRYSTNPITVTVSQNLPSGQTVPRALQILPQIPSNLYGSPGSIYIRQTSQSSSGRQTPQSTPWQSSPQGPVPHYSQRPLPVYPHQQNYQPSQYSPKQQQIPQSAYHSPPPSQCPSPFSSPQHQVQPSQLGHIFMPPSPSTTPPHPYQQGPPSYQKQGSHSVAYLPYTASSLSKGSMKKIEITVEPSQRPGTAINRSPSPISNQPSPRNQHSLYTATTPPSSSPSRGISSQPKPPFSVNPVYITYTQPTGPSCTPSPSPRVIPNPTTVFKITVGRATTENLLNLVDQEERSAAPEPIQPISVIPGSGGEKGSHKYQRSSSSGSDDYAYTQALLLHQRARMERLAKQLKLEKEELERLKSEVNGMEHDLMQRRLRRVSCTTAIPTPEEMTRLRSMNRQLQINVDCTLKEVDLLQSRGNFDPKAMNNFYDNIEPGPVVPPKPSKKDSSDPCTIERKARRISVTSKVQADIHDTQAAAADEHRTGSTQSPRTQPRDEDYEGAPWNCDSCTFLNHPALNRCEQCEMPRYT
With B3, in experiment [3], the binding entry is “no binding”.

B4: Rluc fusion of TAB-2 (protein, UniProt Q9NYJ8 1-693)
chain: MAQGSHQIDFQVLHDLRQKFPEVPEVVVSRCMLQNNNNLDACCAVLSQESTRYLYGEGDLNFSDDSGISGLRNHMTSLNLDLQSQNIYHHGREGSRMNGSRTLTHSISDGQLQGGQSNSELFQQEPQTAPAQVPQGFNVFGMSSSSGASNSAPHLGFHLGSKGTSSLSQQTPRFNPIMVTLAPNIQTGRNTPTSLHIHGVPPPVLNSPQGNSIYIRPYITTPGGTTRQTQQHSGWVSQFNPMNPQQVYQPSQPGPWTTCPASNPLSHTSSQQPNQQGHQTSHVYMPISSPTTSQPPTIHSSGSSQSSAHSQYNIQNISTGPRKNQIEIKLEPPQRNNSSKLRSSGPRTSSTSSSVNSQTLNRNQPTVYIAASPPNTDELMSRSQPKVYISANAATGDEQVMRNQPTLFISTNSGASAASRNMSGQVSMGPAFIHHHPPKSRAIGNNSATSPRVVVTQPNTKYTFKITVSPNKPPAVSPGVVSPTFELTNLLNHPDHYVETENIQHLTDPTLAHVDRISETRKLSMGSDDAAYTQALLVHQKARMERLQRELEIQKKKLDKLKSEVNEMENNLTRRRLKRSNSISQIPSLEEMQQLRSCNRQLQIDIDCLTKEIDLFQARGPHFNPSAIHNFYDNIGFVGPVPPKPKDQRSIIKTPKTQDTEDDEGAQWNCTACTFLNHPALIRCEQCEMPRHF
B4: the binding entry in experiment [3] was “no binding”.
